Measurements as given in the supplement of paper PMC11732987, “Enantioselective OTUD7B fragment discovery through chemoproteomics screening and high-throughput optimisation” (Communications Chemistry, 2025).
The other results are listed elsewhere or left out. The data scatter; read single values as rough.

Amino acid sequences for entries named in this document (tags omitted). A change or cut given only in a name is not applied to a line headed by its entry. Residues count along the entry.
UniProt Q6YN16, 68-87: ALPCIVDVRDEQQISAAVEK
UniProt P42858, whole entry, looked up: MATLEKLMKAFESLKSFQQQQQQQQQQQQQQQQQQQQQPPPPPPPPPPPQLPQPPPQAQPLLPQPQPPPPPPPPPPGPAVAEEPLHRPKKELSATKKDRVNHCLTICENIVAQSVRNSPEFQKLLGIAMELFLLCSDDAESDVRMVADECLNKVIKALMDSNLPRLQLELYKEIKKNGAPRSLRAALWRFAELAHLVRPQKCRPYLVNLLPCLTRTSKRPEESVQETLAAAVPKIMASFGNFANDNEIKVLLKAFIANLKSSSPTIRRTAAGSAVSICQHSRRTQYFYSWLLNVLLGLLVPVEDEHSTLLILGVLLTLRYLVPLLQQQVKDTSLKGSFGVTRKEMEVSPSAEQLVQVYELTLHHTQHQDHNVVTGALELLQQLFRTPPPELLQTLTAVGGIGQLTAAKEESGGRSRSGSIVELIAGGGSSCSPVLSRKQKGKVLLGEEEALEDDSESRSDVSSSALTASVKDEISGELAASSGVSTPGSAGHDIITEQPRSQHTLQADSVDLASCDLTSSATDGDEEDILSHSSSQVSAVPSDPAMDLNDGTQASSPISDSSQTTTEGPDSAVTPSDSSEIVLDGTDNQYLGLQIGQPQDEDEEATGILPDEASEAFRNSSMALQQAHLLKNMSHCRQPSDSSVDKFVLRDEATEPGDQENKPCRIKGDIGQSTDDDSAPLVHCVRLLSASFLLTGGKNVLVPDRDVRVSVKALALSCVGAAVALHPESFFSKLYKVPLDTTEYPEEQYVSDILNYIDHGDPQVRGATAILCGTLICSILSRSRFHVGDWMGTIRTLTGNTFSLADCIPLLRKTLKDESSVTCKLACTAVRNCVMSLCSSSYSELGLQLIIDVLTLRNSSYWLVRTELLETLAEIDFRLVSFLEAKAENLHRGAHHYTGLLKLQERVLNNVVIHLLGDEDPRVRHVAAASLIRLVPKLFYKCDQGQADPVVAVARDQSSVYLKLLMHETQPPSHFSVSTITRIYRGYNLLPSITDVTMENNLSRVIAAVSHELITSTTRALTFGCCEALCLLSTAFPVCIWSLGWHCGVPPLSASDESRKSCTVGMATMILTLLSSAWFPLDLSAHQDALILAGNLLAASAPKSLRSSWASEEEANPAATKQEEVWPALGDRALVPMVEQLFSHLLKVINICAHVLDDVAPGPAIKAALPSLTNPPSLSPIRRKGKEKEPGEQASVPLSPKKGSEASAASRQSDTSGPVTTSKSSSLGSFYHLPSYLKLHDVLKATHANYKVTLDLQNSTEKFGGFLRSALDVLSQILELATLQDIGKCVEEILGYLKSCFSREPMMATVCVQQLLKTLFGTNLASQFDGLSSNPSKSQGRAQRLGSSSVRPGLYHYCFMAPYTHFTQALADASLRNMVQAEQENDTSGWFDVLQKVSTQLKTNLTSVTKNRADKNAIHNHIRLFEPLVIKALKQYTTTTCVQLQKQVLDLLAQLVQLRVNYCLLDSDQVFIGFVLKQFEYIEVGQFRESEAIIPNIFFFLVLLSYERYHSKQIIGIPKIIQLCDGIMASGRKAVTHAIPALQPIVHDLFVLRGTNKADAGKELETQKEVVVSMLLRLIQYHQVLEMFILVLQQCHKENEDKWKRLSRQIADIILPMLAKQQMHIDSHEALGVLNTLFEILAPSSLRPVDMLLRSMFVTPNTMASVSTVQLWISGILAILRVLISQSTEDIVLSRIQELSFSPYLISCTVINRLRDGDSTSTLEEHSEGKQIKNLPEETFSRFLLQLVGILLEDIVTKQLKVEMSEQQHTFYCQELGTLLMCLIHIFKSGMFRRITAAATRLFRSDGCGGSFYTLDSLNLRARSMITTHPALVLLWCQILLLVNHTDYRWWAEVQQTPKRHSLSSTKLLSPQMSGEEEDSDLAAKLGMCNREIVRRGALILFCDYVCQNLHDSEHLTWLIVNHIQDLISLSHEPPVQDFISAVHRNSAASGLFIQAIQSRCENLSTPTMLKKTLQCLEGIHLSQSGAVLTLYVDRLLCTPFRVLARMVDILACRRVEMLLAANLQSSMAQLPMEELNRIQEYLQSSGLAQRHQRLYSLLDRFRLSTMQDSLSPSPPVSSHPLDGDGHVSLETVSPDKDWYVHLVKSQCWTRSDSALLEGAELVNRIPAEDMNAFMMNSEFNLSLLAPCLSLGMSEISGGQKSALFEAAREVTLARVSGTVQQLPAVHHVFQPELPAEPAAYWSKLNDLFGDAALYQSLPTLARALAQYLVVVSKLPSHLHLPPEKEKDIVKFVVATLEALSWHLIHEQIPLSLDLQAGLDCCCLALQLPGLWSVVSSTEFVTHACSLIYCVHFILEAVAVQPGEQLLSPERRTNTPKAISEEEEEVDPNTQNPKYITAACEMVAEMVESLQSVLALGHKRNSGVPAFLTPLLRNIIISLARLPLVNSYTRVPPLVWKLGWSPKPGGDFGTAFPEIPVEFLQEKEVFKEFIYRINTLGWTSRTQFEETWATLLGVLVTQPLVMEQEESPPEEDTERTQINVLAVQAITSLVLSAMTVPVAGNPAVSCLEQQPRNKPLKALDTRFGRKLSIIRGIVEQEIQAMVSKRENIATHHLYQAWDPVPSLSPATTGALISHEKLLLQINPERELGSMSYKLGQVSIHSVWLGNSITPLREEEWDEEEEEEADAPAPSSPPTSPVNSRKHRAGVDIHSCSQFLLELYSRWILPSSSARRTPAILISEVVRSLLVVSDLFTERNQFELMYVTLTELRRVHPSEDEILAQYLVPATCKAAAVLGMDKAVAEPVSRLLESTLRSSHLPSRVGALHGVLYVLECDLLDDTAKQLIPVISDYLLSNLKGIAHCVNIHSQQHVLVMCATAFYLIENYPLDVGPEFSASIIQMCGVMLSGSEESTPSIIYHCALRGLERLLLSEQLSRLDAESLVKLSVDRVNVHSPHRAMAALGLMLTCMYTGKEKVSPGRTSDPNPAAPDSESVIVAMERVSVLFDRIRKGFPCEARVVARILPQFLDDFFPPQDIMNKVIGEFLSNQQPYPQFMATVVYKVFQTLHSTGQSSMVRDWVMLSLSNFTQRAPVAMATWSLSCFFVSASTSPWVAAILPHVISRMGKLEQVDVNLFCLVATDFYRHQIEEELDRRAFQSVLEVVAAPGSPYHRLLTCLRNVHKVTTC
UniProt P51617, whole entry, looked up: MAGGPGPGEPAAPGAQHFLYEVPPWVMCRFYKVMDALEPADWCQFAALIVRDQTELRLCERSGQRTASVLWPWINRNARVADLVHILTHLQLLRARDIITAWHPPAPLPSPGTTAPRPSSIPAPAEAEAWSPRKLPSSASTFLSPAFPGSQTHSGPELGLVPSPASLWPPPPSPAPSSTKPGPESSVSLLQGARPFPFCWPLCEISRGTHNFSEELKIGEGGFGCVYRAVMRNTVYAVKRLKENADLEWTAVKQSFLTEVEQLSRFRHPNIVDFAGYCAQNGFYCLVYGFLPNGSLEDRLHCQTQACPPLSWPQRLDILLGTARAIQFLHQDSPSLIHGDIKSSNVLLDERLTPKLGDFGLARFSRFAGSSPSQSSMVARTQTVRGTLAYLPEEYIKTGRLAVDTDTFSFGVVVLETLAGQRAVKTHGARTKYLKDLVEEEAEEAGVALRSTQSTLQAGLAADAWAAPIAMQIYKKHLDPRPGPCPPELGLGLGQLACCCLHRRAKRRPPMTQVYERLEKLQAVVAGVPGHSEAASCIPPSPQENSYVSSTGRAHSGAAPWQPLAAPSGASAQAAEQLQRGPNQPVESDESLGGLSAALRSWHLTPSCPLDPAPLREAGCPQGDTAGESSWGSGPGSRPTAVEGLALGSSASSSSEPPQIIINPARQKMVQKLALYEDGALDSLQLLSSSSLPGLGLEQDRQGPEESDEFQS
UniProt Q96RY7: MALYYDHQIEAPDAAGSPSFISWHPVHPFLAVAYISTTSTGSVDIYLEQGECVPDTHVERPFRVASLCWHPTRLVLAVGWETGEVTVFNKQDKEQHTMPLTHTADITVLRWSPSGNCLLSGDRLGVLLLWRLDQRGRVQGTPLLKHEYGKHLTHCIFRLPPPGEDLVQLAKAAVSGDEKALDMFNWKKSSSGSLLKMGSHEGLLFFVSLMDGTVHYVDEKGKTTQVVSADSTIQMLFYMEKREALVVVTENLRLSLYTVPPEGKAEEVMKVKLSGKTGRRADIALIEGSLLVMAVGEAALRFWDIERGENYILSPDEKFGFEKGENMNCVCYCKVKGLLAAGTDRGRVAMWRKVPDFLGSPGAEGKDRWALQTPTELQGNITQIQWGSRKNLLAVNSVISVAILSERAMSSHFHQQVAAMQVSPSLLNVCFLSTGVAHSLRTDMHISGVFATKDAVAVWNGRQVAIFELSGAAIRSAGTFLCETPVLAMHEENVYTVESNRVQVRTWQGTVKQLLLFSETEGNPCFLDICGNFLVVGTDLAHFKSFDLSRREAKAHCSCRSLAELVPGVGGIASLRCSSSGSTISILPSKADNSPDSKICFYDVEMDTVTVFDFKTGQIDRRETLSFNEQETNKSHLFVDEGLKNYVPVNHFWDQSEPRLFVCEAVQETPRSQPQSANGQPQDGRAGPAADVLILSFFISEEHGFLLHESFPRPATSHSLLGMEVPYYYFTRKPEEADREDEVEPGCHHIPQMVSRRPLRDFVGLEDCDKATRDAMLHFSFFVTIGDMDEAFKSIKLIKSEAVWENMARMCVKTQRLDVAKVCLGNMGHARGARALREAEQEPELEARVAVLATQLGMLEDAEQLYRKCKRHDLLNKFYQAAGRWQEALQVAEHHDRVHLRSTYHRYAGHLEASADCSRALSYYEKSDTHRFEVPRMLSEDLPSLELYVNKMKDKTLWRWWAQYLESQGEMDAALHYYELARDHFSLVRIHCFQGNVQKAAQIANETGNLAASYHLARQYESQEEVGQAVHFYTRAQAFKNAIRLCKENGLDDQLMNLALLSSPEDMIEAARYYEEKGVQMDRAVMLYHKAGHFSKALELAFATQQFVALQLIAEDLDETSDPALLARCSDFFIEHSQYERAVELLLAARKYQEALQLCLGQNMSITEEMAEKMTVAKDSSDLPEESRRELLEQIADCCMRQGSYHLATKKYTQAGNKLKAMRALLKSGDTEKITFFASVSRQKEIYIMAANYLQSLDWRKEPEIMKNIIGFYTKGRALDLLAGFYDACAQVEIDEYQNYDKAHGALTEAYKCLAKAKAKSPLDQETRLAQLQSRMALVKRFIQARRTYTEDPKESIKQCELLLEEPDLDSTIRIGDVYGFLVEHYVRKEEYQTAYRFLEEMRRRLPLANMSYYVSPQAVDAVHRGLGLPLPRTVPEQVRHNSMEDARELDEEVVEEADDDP
UniProt Q659A1: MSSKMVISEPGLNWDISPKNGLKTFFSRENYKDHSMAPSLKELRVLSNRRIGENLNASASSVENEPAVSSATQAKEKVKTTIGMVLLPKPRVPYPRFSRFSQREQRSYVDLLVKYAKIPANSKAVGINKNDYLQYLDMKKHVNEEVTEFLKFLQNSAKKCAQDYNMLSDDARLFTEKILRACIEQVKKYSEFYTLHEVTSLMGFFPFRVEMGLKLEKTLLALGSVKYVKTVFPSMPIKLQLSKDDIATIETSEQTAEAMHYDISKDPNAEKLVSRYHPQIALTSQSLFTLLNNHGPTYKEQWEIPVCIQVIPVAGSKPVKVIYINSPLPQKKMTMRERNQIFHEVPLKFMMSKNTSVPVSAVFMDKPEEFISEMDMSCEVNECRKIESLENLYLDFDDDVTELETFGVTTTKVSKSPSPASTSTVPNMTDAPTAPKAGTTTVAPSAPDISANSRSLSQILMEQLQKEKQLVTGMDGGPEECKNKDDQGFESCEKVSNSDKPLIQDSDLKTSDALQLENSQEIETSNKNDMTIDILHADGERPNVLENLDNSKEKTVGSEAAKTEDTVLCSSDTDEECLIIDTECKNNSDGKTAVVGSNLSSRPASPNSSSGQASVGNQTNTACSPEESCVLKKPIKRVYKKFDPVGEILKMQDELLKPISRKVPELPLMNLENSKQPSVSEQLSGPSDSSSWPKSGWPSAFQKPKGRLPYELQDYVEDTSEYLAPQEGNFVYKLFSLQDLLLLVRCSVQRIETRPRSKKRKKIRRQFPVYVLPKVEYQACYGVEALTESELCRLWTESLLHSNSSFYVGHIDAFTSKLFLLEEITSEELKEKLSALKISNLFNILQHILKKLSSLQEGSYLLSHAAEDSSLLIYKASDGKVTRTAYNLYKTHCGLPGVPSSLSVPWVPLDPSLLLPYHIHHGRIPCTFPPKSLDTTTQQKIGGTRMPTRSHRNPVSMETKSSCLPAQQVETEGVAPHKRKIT
UniProt Q9NV88, 463-485: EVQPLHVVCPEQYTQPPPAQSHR

These targets were tested with ClCC(=O)N[C@H]1CCCc2ccccc12 (assay: log2 mean competition ratio of IA-DTB cysteine labelling (DMSO/compound) (log2 ratio); higher = stronger cysteine engagement by compound). Conditions: 50 µM; treatment time: 4 h; cell line lysate: HEK293T.
Description: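 IA-DTB competitive cysteine chemoproteomics in HEK293T RIPA lysate. Lysates were treated with compound 29 or 30 at 50 or 200 µM for 4 h, then IA-DTB (500 µM, 1 h), trypsin-digested, NeutrAvidin-enriched and analysed by diaPASEF. Competition ratio = intensity DMSO / intensity compound (n=4 treated, n=64 DMSO); binding: mean log2 CR ≥ 1 and p ≤ 0.05 plus QC filters. Target is the cysteine site.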

Row | Target | log2 mean competition ratio
1 | IP6K1 C349 (UniProt Q92551) | -0.335
2 | HSDL2 C71 (UniProt Q6YN16) | -0.0455
3 | INPP1 C10 (UniProt P49441) | 0.36
4 | IFNAR1 C426 (UniProt P17181) | -0.581
5 | HTT C2013 (UniProt P42858) | 0.105
6 | HTRA2 C71 (UniProt O43464) | -0.226
7 | INTS11 C354 (UniProt Q5TA45) | 0.371
8 | IARS2 C883 (UniProt Q9NSE4) | -0.15
9 | IGF1R C488 (UniProt P08069) | -0.541
10 | HPF1 C152 (UniProt Q9NWY4) | 0.43
11 | HOXD13 C40 | -0.0645
12 | IRAK1 C225 (UniProt P51617) | -0.226
13 | HSPBP1 C310 | 0.0812
14 | IRF2BP1 C518 (UniProt Q8IU81) | -0.151
15 | INTS7 C374 (UniProt Q9NVH2) | -0.194
16 | INPPL1 C1187 (UniProt O15357) | -0.0297
17 | HOXD11 C225 | -0.183
18 | HUWE1 C3239 | 0.042
19 | IRF2BP1 C207 (UniProt Q8IU81) | 0.557
20 | HSDL1 C328 (UniProt Q3SXM5) | 0.138
21 | HUWE1 C471 | 0.321
22 | IFT140 C1360 (UniProt Q96RY7) | -0.0696
23 | ICE2 C492 (UniProt Q659A1) | -0.203
24 | HUWE1 C1074 | -0.103
25 | IQGAP2 C1183 (UniProt Q13576) | 0.0516
26 | HTT C942 (UniProt P42858) | -0.133
27 | HUWE1 C1401 | -0.0209
28 | INTS9 C471 (UniProt Q9NV88) | -0.497
29 | IRF2BP2 C521 (UniProt Q7Z5L9) | -0.336

Entries 26 through 27 from above:
Row | Target | log2 mean competition ratio
26 | HTT C942 (UniProt P42858) | -0.133
27 | HUWE1 C1401 | -0.0209
